The values that follow come from article PMC12607630.

Sequences of proteins named here, by UniProt entry; tags and fusion partners are left off. A change or cut given only in a name is not applied to a line headed by its entry.
UniProt P0A9A6: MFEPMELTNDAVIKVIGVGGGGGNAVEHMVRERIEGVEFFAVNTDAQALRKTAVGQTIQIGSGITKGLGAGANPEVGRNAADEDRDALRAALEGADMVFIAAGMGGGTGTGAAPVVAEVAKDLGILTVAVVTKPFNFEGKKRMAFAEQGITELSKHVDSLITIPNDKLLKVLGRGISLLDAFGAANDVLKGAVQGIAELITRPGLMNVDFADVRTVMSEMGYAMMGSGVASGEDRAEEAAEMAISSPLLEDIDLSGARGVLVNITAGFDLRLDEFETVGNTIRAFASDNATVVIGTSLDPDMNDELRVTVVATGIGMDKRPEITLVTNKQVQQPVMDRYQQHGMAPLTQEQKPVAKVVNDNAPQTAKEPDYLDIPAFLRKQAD
UniProt P75862: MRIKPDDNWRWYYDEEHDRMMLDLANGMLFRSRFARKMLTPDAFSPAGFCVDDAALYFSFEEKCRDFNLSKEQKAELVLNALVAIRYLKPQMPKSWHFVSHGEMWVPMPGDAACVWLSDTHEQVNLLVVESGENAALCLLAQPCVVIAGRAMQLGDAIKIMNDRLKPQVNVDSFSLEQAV

Results are given in words; binding and its absence hold for the method and conditions named. For part of these data: Binding can be weak; no strength is given.

Holding throughout (assay): two-hybrid; bacterial two-hybrid in strain LYA1 (BTH101, ftsA^R286W); LB plates with antibiotics, 40 µg/mL X-gal and IPTG, 30°C, about 18 hours
The target of test [1] is FtsZ D360Y, FtsZ-T25 fusion (bacterial two-hybrid) (Escherichia coli) (UniProt P0A9A6).
In test [2] the target is FtsZ-T25 fusion (bacterial two-hybrid) (Escherichia coli) (UniProt P0A9A6).
For test [3], the target named is FtsZ F285S D360Y, FtsZ-T25 fusion (bacterial two-hybrid) (Escherichia coli) (UniProt P0A9A6).
For test [4], the target named is FtsZ I323L A376T, FtsZ-T25 fusion (bacterial two-hybrid) (Escherichia coli) (UniProt P0A9A6).
For test [5], the target named is FtsZ F285S A376T, FtsZ-T25 fusion (bacterial two-hybrid) (Escherichia coli) (UniProt P0A9A6).
For test [6], the target named is FtsZ F285S I323L, FtsZ-T25 fusion (bacterial two-hybrid) (Escherichia coli) (UniProt P0A9A6).
For test [7], the target named is FtsZ A376T, FtsZ-T25 fusion (bacterial two-hybrid) (Escherichia coli) (UniProt P0A9A6).
Test [8] deals with FtsZ^I323L, FtsZ-T25 fusion (bacterial two-hybrid) (Escherichia coli) (UniProt P0A9A6).
Test [9] has as its target FtsZ^F285S, FtsZ-T25 fusion (bacterial two-hybrid) (Escherichia coli) (UniProt P0A9A6).

On to “ZapC (bacterial two-hybrid fusion) (from UniProt P75862 1-180)”, for which the binding result in [1] was “binds”; in test [2], “binds”; in test [3], “no binding”; in test [4], “no binding”; in test [5], “no binding”; in test [6] it was “no binding”. Besides, the binding result in test [7], in test [8] and in test [9] was “binds” in each case.
